Patent US11306361B2, “Pathology prognosis method” (CENTRE NATIONAL DE LA RECHERCHE SCIENTIFIQUE, priority 2015, dated 2022)
At least one compound was matched to its structure with a doubt left.

Tested on: Langerhans islets
Assay: Caspase activity in the pancreatic islets after palmitate
Type: cell-based, mouse
Details: irrespective of the mice tested

CCCCCCCCCCCCCCCC(=O)O [palmitate] was tested, and the “resistance of Langerhans islets to treatment, between mouse genotypes” value was “not seen any difference in resistance”.
